The assay concerns hESCs and hESC-derived NSCs. Put plainly: Comparative ATP screening on hESCs and hESC-derived NSCs (ratio ESC/NSC or NSC/ESC).

As to `Cc1cc(/C=C/c2ccc3cc(N(C)C)ccc3[n+]2C)c(C)n1-c1ccccc1` [Pyrvinium Pamoate], the ESC/NSC worked out at 85.91.

The values are drawn from patent publication US20120244567A1, “HUMAN EMBRYONIC STEM CELLS FOR HIGH THROUGHOUT DRUG SCREENING” (BUCK INSTITUTE FOR RESEARCH ON AGING, priority 2009, published 2012).
